Assay results as given in US20220332700A1, “NOVEL APOPTOSIS SIGNAL-REGULATING KINASE 1 INHIBITORS” (MANKIND PHARMA LTD, priority 2019, published 2022).
pIC50: −log10 of the molar value. The match of structure and compound is tentative.

The chains behind the UniProt entries cited, without tags or fusion partners. Residues count along the entry.
UniProt Q99683, 654-971 limits assumed: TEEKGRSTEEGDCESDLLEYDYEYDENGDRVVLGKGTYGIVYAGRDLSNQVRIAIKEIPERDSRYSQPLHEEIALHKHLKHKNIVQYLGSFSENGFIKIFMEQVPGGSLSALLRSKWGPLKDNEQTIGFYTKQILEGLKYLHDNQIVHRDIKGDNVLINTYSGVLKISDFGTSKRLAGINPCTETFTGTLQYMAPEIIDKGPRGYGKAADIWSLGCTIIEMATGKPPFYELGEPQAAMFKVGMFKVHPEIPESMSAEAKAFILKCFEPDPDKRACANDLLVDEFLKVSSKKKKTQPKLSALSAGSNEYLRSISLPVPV
UniProt Q99683, whole entry: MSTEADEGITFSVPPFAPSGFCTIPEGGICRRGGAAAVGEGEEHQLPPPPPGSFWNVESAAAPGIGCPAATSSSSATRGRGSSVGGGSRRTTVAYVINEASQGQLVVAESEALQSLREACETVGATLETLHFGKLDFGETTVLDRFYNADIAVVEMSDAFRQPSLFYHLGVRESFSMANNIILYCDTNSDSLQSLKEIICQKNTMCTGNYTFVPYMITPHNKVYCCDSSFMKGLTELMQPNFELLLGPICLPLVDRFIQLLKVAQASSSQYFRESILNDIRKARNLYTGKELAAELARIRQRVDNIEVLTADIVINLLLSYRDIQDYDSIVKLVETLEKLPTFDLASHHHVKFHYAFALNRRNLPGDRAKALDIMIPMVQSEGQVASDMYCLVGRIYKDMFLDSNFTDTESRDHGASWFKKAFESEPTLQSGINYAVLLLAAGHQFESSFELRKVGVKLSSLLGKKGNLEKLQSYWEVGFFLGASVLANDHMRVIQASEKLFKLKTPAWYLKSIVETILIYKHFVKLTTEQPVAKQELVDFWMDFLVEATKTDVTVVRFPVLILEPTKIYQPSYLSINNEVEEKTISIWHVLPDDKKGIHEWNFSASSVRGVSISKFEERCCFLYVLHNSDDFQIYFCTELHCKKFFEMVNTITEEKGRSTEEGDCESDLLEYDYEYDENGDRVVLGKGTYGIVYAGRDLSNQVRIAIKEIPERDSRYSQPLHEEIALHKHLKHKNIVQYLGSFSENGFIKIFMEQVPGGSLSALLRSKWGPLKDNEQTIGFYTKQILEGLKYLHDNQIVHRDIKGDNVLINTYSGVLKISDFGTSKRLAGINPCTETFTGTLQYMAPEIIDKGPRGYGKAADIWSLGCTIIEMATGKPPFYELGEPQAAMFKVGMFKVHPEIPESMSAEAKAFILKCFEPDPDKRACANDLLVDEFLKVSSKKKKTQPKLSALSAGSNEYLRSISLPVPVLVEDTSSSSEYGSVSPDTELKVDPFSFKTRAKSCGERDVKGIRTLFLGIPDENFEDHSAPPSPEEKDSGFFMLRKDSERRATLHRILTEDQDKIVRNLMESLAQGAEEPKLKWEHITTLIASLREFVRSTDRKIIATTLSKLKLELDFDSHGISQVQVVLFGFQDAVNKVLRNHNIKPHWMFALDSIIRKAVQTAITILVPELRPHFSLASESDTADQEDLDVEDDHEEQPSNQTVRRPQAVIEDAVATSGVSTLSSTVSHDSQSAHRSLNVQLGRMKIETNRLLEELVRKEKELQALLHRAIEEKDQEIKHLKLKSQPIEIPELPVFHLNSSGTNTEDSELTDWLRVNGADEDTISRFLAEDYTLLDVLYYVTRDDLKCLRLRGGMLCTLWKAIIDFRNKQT

What was measured:
Human ASK1 [1] = target: T1, Human ASK1 (Homo sapiens, UniProt Q99683); assay: ASK1 Biochemical Assay (HTRF KinEASE-STK S3); settings: read-out: Biochemical Assay IC50; ATP 100 μM
Human ASK1 [2] = target: T1, Human ASK1; assay: ASK1 Cell Based Assay (phospho p38 read out in hASK1 transfected HEK293T-AP1 cells); settings: 1 mM hydrogen peroxide

| pIC50 (Human ASK1 [1]) | pIC50 (Human ASK1 [2]) | SMILES |
| --- | --- | --- |
| > 7.00 | – | CS(=O)(=O)c1ccc(N2CCN(c3cccc(-c4nncn4C4CC4)n3)C2=O)cc1 |
| < 7.00 | – | COc1cc(N2CCN(c3cccc(-c4nncn4C(C)C)n3)C2=O)ccc1S(C)(=O)=O |
| > 7.00 | < 6.00 | COCCS(=O)(=O)c1ccc(N2CCN(c3cccc(-c4nncn4C(C)C)n3)C2=O)cn1 |
